For this experiment, the target named is CHIQ1-GFP (CHIQUITA 1 fused to GFP), overexpressed in Arabidopsis seedlings (Arabidopsis thaliana) (UniProt O22146). Description: affinity purification with mass spectrometry; anti-GFP antibody on protein A/G magnetic beads; total protein of 2-day-old Arabidopsis seedlings overexpressing CHIQ1-GFP, GFP-overexpressing seedlings as control; native buffer (100 mM sodium phosphate pH 8.0, 150 mM NaCl, 5 mM EDTA, 5 mM EGTA, 0.05% Triton X-100), 1.5 h at 4 °C; LC/MS-MS, at least three peptides, only proteins absent from the GFP control.

These are yes or no findings as the source states them, for the method shown. Binding seen in cells or lysates may run through a third protein. A yes stands for co-enrichment or nearness to the bait. Other partners may have been found.

B1: PICKLE-RELATED2 (PKR2), endogenous (protein, UniProt F4JTF6 1-1202)
chain: MANLLQRLRRRTGPKPDYIEDKLDEYIREEQVEETGGSNQDCPLGEIEKILDREWRPTASNNPNSSDNGTPTLVVVKQYLVKWKGLSYLHCSWVPEQEFEKAYKSHPHLKLKLRVTRFNAAMDVFIAENGAHEFIAIRPEWKTVDRIIACREGDDGEEYLVKYKELSYRNSYWESESDISDFQNEIQRFKDINSSSRRDKYVENERNREEFKQFDLTPEFLTGTLHTYQLEGLNFLRYSWSKKTNVILADEMGLGKTIQSIAFLASLFEENLSPHLVVAPLSTIRNWEREFATWAPHMNVVMYTGDSEARDVIWEHEFYFSEGRKSKFDVLLTTYEMVHPGISVLSPIKWTCMIIDEGHRLKNQKSKLYSSLSQFTSKHIVLLTGTPLQNNLNELFALMHFLDADKFGSLEKFQDINKEEQISRLHQMLAPHLLRRLKKDVLKDKVPPKKELILRVDMSSQQKEVYKAVITNNYQVLTKKRDAKISNVLMKLRQVCSHPYLLPDFEPRFEDANEAFTKLLEASGKLQLLDKMMVKLKEQGHRVLIYTQFQHTLYLLEDYFTFKNWNYERIDGKISGPERQVRIDRFNAENSNRFCFLLSTRAGGIGINLATADTVIIYDSDWNPHADLQAMARVHRLGQTNKVMIYRLIHKGTVEERMMEITKNKMLLEHLVVGKQHLCQDELDDIIKYGSKELFSEENDEAGRSGKIHYDDAAIEQLLDRNHVDAVEVSLDDEEETDFLKNFKVASFEYVDDENEAAALEEAQAIENNSSVRNADRTSHWKDLLKDKYEVQQAEELSALGKRKRNGKQVMYAEDDLDGLEEISDEEDEYCLDDLKVTSDEEEEADEPEAARQRKPRTVTRPYRKRARDNSEEIPLMEGEGRYLMVLGFNETERDIFLRTFKRYGAGNFDWKEFVNPLYMKTYDEINKYGILFLKHIAENPTDNSTNFKVITAMVYADGVPKEGISSDELLVSMTFMMLVKEKCQFLDNHPTAPVFSNYVISKYNLRNGAFSKEEHDRILIPAVSKHGYGRWVAIVEDEEIGFQEVACKDLNIPFPPDTKSARKRICDHVGKRVKKMEDAIKYEYAEKILAEQAKAETKGTSFVDAEKEMLKNDPITSKKNSATAVDNKQGRVEMAQSYDQSVNEKSGESFQTYLDIQPLNRMPRESFKPLEPINEEISTRLSVGTDHDVEMDAADNIIVLD
As to B1, the binding entry is given as “binds”.

Values taken from article PMC5485742.
